About 6,000 (1.7%) of roughly 350,000 compounds were called active. Inconclusive results, whose numbers are uncertain, are shown with a selection of clear calls. Rule as the data show it: active = CPE inhibition above about 20% (passing the limit was not always enough); inconclusive = no clear call, values can overlap the other calls; tested in BHK-21 cells. Where a structure was tested more than once in an assay, its records may differ in their call.
test: protection of cells from dengue 2 killing – plate reader, single concentration, primary screen (AID 651640); conditions: DENV2-infected cells, cytopathic effect rescue, at 9.99 µM, active compounds read high;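 also: 0% = median of neutral control wells and 100% = median of positive control wells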

SMILES	CPE inhibition
Cc1ccc(S(=O)(=O)Nc2ccc3c(c2)C(=O)N([C@@H](C)CO)C[C@@H](C)[C@H](CN(C)S(=O)(=O)c2ccccc2)OCCCC[C@H](C)O3)cc1	inactive: -8.44%
CCOc1cc(C(=O)NC(=S)Nc2nc(C)cc(C)n2)cc(OCC)c1OCC	inconclusive: 23.3%
ClCCCc1cn(C[C@H]2CC[C@@H]([C@@H]3CC[C@H](Cn4cc(CCCCl)nn4)O3)O2)nn1	active: 22.4%
COc1ccc2c3c([nH]c2c1)[C@H](CO)N(C(=O)C1CC1)CC31CCN(C)CC1	inactive: 0.139%
C[C@@H]1CN([C@H](C)CO)C(=O)c2cc(NC(=O)Nc3ccc(F)cc3)ccc2O[C@@H](C)CCCCO[C@H]1CN(C)S(=O)(=O)c1cccs1	active: 47%
C[C@H](CO)N1C[C@H](C)[C@@H](CN(C)S(=O)(=O)c2ccc(Cl)cc2)OCCCC[C@H](C)Oc2ccc(NC(=O)Nc3ccc(C(F)(F)F)cc3)cc2C1=O	active: 36.5%
CCOc1ccc(-n2c(=S)sc3c(=O)n(-c4ccc(F)cc4)c(SCC(=O)O)nc32)cc1	inactive: -7.73%
CC(=O)/C(C#N)=C1\NC(=O)C(Cc2ccc(C)c(Cl)c2)S1 (stereo unspecified)	active: 87%
COc1ccc(OCc2ccc(/C=N\NC(=O)c3sccc3C)o2)cc1	inconclusive: 37.9%
CC(C)NC(=O)N[C@@H]1CC[C@H](CCNS(=O)(=O)c2ccc(F)cc2)O[C@H]1CO	inconclusive: 41.3%
COc1ccc(C(CCN2CCCC(C)C2)c2c(OC)cc(OC)c3c(-c4ccccc4)cc(=O)oc23)cc1 (stereo unspecified)	inconclusive: 45.5%
O=C(NCCS(=O)(=O)NCc1ccco1)c1ccccc1	inconclusive: 38.9%
NC(=O)c1ccccc1NC(=O)CN1CCN(Cc2ccc(Cl)cc2Cl)CC1	inconclusive: 42%
O=C(O)Cc1cc(=O)[nH]n(-c2ccccc2)c1=O	inconclusive: 63.2%
C[C@@H]1CN([C@@H](C)CO)C(=O)c2c(c3ccccc3n2C)-c2ccccc2CO[C@@H]1CN(C)C(=O)Nc1ccnc(N2CCOCC2)c1	inconclusive: 27.4%
COC(=O)[C@@]1(Cc2ccc(F)cc2)[C@H]2c3cc(C(=O)N(C)C)n(Cc4ccsc4Br)c3C[C@H]2CN1C(=O)c1ccccc1	inconclusive: 55.3%
CCCCCC[n+]1ccccc1/C=C/c1ccc(N(C)C)cc1	inactive: -1.42%
CCOC(=O)/C=C/C(=O)OCC(=O)N1CCN(C(=O)c2ccco2)CC1	inconclusive: 48.4%
COC(=O)[C@]12CCCCC=C1N(Cc1ccccc1)C(=O)[C@H](CC(=O)N1CCC(c3ccccc3)CC1)C2	inconclusive: 28%
C[C@@H]1CN([C@H](C)CO)C(=O)c2cc(NS(=O)(=O)c3ccc(F)cc3)ccc2O[C@@H](C)CCCCO[C@H]1CN(C)Cc1ccc(Cl)c(Cl)c1	inactive: 5.84%
CN(C)CCCNC(=O)C[C@@H]1C=C[C@@H](NS(=O)(=O)c2ccc(F)cc2)[C@H](CO)O1	inactive: 7.24%
C/C(=N\NC(=O)c1cccnc1)c1ccc(Br)cc1	inconclusive: 24%
CCC1(c2ccccc2)ON(c2c(Br)cccc2Br)C1=O (stereo unspecified)	inconclusive: 31.1%
CCNC(=O)[C@H]1N[C@H]2c3ccc(-c4cccc(C(=O)N(C)C)c4)c(=O)n3C[C@H]2[C@@H]1CO	inactive: 2.68%

Gathered by group, the compounds so far with a COOH group
SMILES	CPE inhibition
CCOc1ccc(-n2c(=S)sc3c(=O)n(-c4ccc(F)cc4)c(SCC(=O)O)nc32)cc1	inactive: -7.73%
O=C(O)Cc1cc(=O)[nH]n(-c2ccccc2)c1=O	inconclusive: 63.2%

(continued)

SMILES	CPE inhibition
CCOC(=O)C1=C(N)OC(C)=C(C#N)C1c1ccco1 (stereo unspecified)	inconclusive: 20.2%
O=C(OCC(=O)N1c2ccccc2Sc2ccccc21)c1ccc[n+]([O-])c1	inconclusive: 28.5%
COc1ccc(CC(N)c2csc(NC(=O)c3ccc(OC)cc3)n2)cc1 (stereo unspecified)	active: 36.8%
CC(C)NC(=O)Nc1ccc2c(c1)C(=O)N([C@H](C)CO)C[C@@H](C)[C@H](CN(C)Cc1ccc(C(F)(F)F)cc1)OCCCC[C@@H](C)O2	active: 31.5%
COc1ccccc1N(C)S(=O)(=O)c1ccc(C(=O)Nc2nnc(C)s2)cc1	inconclusive: 37.9%
C/C=C(\C)C(=O)Nc1cccc(C2=NOC3(C2)C[C@H](C(N)=O)N(C(=O)CC#N)C3)c1 (stereo partly specified)	inconclusive: 28.8%
Cc1ccccc1OCCCN1CCOCC1	inconclusive: 34.6%
COC(=O)CN1C(=O)[C@H]2[C@@H](/C=C/c3ccccc3)N3C(=O)CN(Cc4ccccc4)C(=O)[C@@]3(C)[C@H]2C1=O	active: 50.1%
O=c1c2cc(Br)ccc2[nH]c(=S)n1Cc1ccccc1	inactive: 0.405%
COc1ccc(NC(=O)Nc2ccc3c(c2)C(=O)N([C@H](C)CO)C[C@H](C)[C@H](CN(C)C(=O)NC2CCCCC2)OCCCC[C@H](C)O3)cc1	inactive: -11.9%
C[C@H](CO)N1C[C@H](C)[C@H](CN(C)Cc2ccccc2)Oc2ccc(NC(=O)Cc3cn(C)c4ccccc34)cc2CC1=O	inactive: 12%
Cc1cccc(N(CC(=O)NC2CC3CCC2C3)S(=O)(=O)c2ccccc2)c1 (stereo unspecified)	inconclusive: 32.4%
N#Cc1ccc(CN(Nc2ccccc2)c2ccccc2)cc1	inconclusive: 41.9%
COc1ccc(-c2ccc(C3[C@H]4CNC[C@@H]3N4C(=O)Nc3ccccc3F)cc2)cc1 (stereo partly specified)	active: 25.9%
CCCN(C)C[C@H]1Oc2ncc(-c3cccnc3)cc2C(=O)N([C@@H](C)CO)C[C@H]1C	inactive: 7.97%
O=C(C1CC1)N1CC[C@@H]2[C@@H](CO)Nc3ccc(-c4ccc(F)cc4)cc3[C@@H]21	inconclusive: 33%
CC(C)c1ccc(NC(=O)CSc2n[nH]c(=O)n2-c2ccc3c(c2)OCCO3)cc1	inconclusive: 20.2%
CCCCOCC1CN(CCCC)S(=O)(=O)c2c(cccc2Sc2ccc(OC)c(OC)c2)O1 (stereo unspecified)	inconclusive: 43.2%
CC1(C)CC(NC(=O)COc2ccc3c4c(c(=O)oc3c2)CCCC4)CC(C)(C)N1	inconclusive: 28.7%
C[C@@H]1CN([C@H](C)CO)C(=O)c2cc(C#CCN(C)C)cnc2O[C@H]1CN(C)Cc1cccc(C(=O)O)c1	active: 30.3%
COC(=O)[C@]12C[C@H](CC(=O)NCCC(C)C)C(=O)N(Cc3ccccc3)C1=C[C@H](C(C)(C)C)O[C@@H]2C	inconclusive: 43.9%
COc1ccc(C#Cc2ccc3c(c2)[C@@H]2[C@@H](CCN2C(=O)C2CCCC2)[C@@H](CO)N3)cc1	inconclusive: 32.9%
CC(C)CC#Cc1ccc2c(c1)O[C@H](CN(C)C(=O)CC1CC1)[C@@H](C)CN([C@H](C)CO)S2(=O)=O	inconclusive: 30.7%
Cc1noc(C)c1NC(=O)Nc1ccc2c(c1)CC(=O)N([C@@H](C)CO)C[C@@H](C)[C@@H](CN(C)S(C)(=O)=O)O2	inactive: -3.9%

Quoted at random: 2 records from the list, in no set order.
SMILES	CPE inhibition
CC(C)NC(=O)N[C@@H]1CC[C@H](CCNS(=O)(=O)c2ccc(F)cc2)O[C@H]1CO	inconclusive: 41.3%
Cc1ccccc1OCCCN1CCOCC1	inconclusive: 34.6%

(continued)

SMILES	CPE inhibition
CC(=O)N1CCN(C(=O)COC(=O)/C=C/c2ccccc2[N+](=O)[O-])CC1	inconclusive: 29.4%
N#C[C@@H]1[C@@H](c2ccc(C#CC3CCCCC3)cc2)[C@H](CO)N1C(=O)Cc1ccccn1	active: 67%
COCC(=O)N(C)C[C@H]1Oc2ncc(C#Cc3ccccc3)cc2C(=O)N([C@@H](C)CO)C[C@H]1C	inconclusive: 26.9%
CCc1nc(CN(C)C(=O)C2CCC(=O)N(Cc3cccc(F)c3)C2)no1 (stereo unspecified)	inconclusive: 28.5%
O=C(N/N=C/c1c(Cl)[nH]c2ccccc12)c1sc2ccccc2c1Cl	inconclusive: 64.1%
CC(C)NC(=O)Nc1ccc2c(c1)CC(=O)N([C@@H](C)CO)C[C@@H](C)[C@H](CN(C)C(=O)Nc1ccc(F)cc1)O2	inactive: 8.24%
COc1ccc(S(=O)(=O)Nc2ccc3c(c2)C(=O)N([C@@H](C)CO)C[C@H](C)[C@@H](CN(C)C(=O)Nc2ccc(C(F)(F)F)cc2)OCCCC[C@H](C)O3)cc1	active: 106%
COc1ccc(S(=O)(=O)Nc2cccc3c2O[C@H](CN(C)C(=O)Nc2ccccc2)[C@@H](C)CN([C@@H](C)CO)C3=O)cc1	inconclusive: 39%
COc1cccc(-c2cccc(-c3nc(C(=O)Nc4ccc(-c5ccccc5)cc4)cc4c3[C@@H](CCO)N(S(=O)C(C)(C)C)C4)c2)c1 (stereo partly specified)	inconclusive: 43.8%
COc1cc(C=CC(=O)c2ccccc2)cc(OC)c1OC	inconclusive: 25.9%
CC1CCN(S(=O)(=O)c2ccc(C(=O)Nc3nnc(-c4ccco4)o3)cc2)CC1	active: 89.6%
COC(=O)[C@H](Cc1ccccc1)NC(=O)/C=C/[C@H]1O[C@@H](n2ccc(=O)[nH]c2=O)[C@H](O)[C@@H]1O	inconclusive: 26.9%
CCCC(=O)Nc1c(-c2cccc(OC)c2)c(=O)c2ccccc2n1C	inconclusive: 27.1%
CC1CCN(C(=O)CSc2nc3[nH]ncc3c(=O)[nH]2)CC1	inconclusive: 47.1%
CCCN(CC(=O)Nc1ccccc1OC)C(=O)CSC(=S)N1CCCC1	inactive: 0.853%
Cc1n[nH]c(C)c1CCC(=O)N/N=C/c1c[nH]c2ccccc12	inconclusive: 26.3%
CCc1ccc(Nc2ccc(C(N)=O)cc2[N+](=O)[O-])cc1	inactive: 12.4%
COc1ccc(-n2c(SCC(=O)Nc3nccs3)nc3c(c2=O)SCC3)cc1	inconclusive: 57.2%
Cc1nn(-c2ccccc2)c2[nH]c(=O)cc(C(F)(F)F)c12	inactive: -4.83%
CC1=NC(C)(C)Cc2c(C)cccc21	inactive: 0.489%
O=C(C(=O)N1CCN(c2ccccc2F)CC1)c1ccccc1	inconclusive: 46.5%
COc1ccc2sc(-c3ccccc3OC)c(-c3ccc(OC)nc3)c2c1	inconclusive: 45.7%

From PubChem BioAssay AID651640 (Broad Institute, 2012)
